Experimental data: the supplement of paper PMC8728848
The other results are listed elsewhere or left out.

How the values were obtained:
Experiment in all cases: glycan array binding signal (z-score within array); higher = stronger binding
Details in all cases: glycan notation: IUPAC condensed, linker removed
[1] = target: Gal(b1-4)GlcNAc(b1-2)[Gal(b1-4)GlcNAc(b1-6)]Man(a1-6)[GlcNAc(b1-4)][Gal(b1-4)GlcNAc(b1-2)[Gal(b1-4)GlcNAc(b1-4)]Man(a1-3)]Man(b1-4)GlcNAc(b1-4)[Fuc(a1-6)]GlcNAc
In short: (§1)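 Columns mapping to the same glycan were averaged after glycan names were converted to IUPAC-condensed notation. The data come from 3228 arrays in the Consortium for Functional Glycomics database, limited to those with an available protein sequence. Binding is reported as a within-array Z-score averaged across arrays of one protein sequence and across linkers.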

[2] = target: Gal(b1-4)GlcNAc(b1-3)Gal(b1-3)GalNAc
In short: as §1

[3] = target: Gal(b1-4)GlcNAc(b1-3)Gal(b1-3)GlcNAc
In short: as §1

[4] = target: Gal(b1-4)GlcNAc(b1-3)Gal(b1-4)Glc
In short: as §1

[5] = target: Gal(b1-4)GlcNAc(b1-3)Gal(b1-4)GlcNAc
In short: as §1

[6] = target: Gal(b1-4)GlcNAc(b1-3)Gal(b1-4)GlcNAc(b1-2)Man(a1-3)[Gal(b1-4)GlcNAc(b1-3)Gal(b1-4)GlcNAc(b1-2)Man(a1-6)]Man(b1-4)GlcNAc(b1-4)GlcNAc
In short: as §1

[7] = target: Gal(b1-4)GlcNAc(b1-3)Gal(b1-4)GlcNAc(b1-2)Man(a1-3)[Gal(b1-4)GlcNAc(b1-3)Gal(b1-4)GlcNAc(b1-2)Man(a1-6)]Man(b1-4)GlcNAc(b1-4)[Fuc(a1-6)]GlcNAc
In short: as §1

[8] = target: Gal(b1-4)GlcNAc(b1-3)Gal(b1-4)GlcNAc(b1-2)[Gal(b1-4)GlcNAc(b1-3)Gal(b1-4)GlcNAc(b1-6)]Man(a1-6)[Gal(b1-4)GlcNAc(b1-3)Gal(b1-4)GlcNAc(b1-2)Man(a1-3)]Man(b1-4)GlcNAc(b1-4)GlcNAc
In short: as §1

[9] = target: Gal(b1-4)GlcNAc(b1-3)Gal(b1-4)GlcNAc(b1-2)[Gal(b1-4)GlcNAc(b1-3)Gal(b1-4)GlcNAc(b1-6)]Man(a1-6)[Gal(b1-4)GlcNAc(b1-3)Gal(b1-4)GlcNAc(b1-2)Man(a1-3)]Man(b1-4)GlcNAc(b1-4)[Fuc(a1-6)]GlcNAc
In short: as §1

[10] = target: Gal(b1-4)GlcNAc(b1-3)Gal(b1-4)GlcNAc(b1-3)Gal(b1-4)GlcNAc
In short: as §1

[11] = target: Gal(b1-4)GlcNAc(b1-3)Gal(b1-4)GlcNAc(b1-3)Gal(b1-4)GlcNAc(b1-2)Man(a1-3)[Gal(b1-4)GlcNAc(b1-3)Gal(b1-4)GlcNAc(b1-3)Gal(b1-4)GlcNAc(b1-2)Man(a1-6)]Man(b1-4)GlcNAc(b1-4)GlcNAc
In short: as §1

[12] = target: Gal(b1-4)GlcNAc(b1-3)Gal(b1-4)GlcNAc(b1-3)Gal(b1-4)GlcNAc(b1-2)Man(a1-3)[Gal(b1-4)GlcNAc(b1-3)Gal(b1-4)GlcNAc(b1-3)Gal(b1-4)GlcNAc(b1-2)Man(a1-6)]Man(b1-4)GlcNAc(b1-4)[Fuc(a1-6)]GlcNAc
In short: as §1

[13] = target: Gal(b1-4)GlcNAc(b1-3)Gal(b1-4)GlcNAc(b1-3)Gal(b1-4)GlcNAc(b1-2)[Gal(b1-4)GlcNAc(b1-3)Gal(b1-4)GlcNAc(b1-3)Gal(b1-4)GlcNAc(b1-6)]Man(a1-6)[Gal(b1-4)GlcNAc(b1-3)Gal(b1-4)GlcNAc(b1-3)Gal(b1-4)GlcNAc(b1-2)Man(a1-3)]Man(b1-4)GlcNAc(b1-4)[Fuc(a1-6)]GlcNAc
In short: as §1

[14] = target: Gal(b1-4)GlcNAc(b1-3)Gal(b1-4)GlcNAc(b1-3)Gal(b1-4)GlcNAc(b1-3)Gal(b1-4)GlcNAc(b1-2)Man(a1-3)[Gal(b1-4)GlcNAc(b1-3)Gal(b1-4)GlcNAc(b1-3)Gal(b1-4)GlcNAc(b1-3)Gal(b1-4)GlcNAc(b1-2)Man(a1-6)]Man(b1-4)GlcNAc(b1-4)GlcNAc
In short: as §1

[15] = target: Gal(b1-4)GlcNAc(b1-3)Gal(b1-4)GlcNAc(b1-3)Gal(b1-4)GlcNAc(b1-3)Gal(b1-4)GlcNAc(b1-2)Man(a1-3)[Gal(b1-4)GlcNAc(b1-3)Gal(b1-4)GlcNAc(b1-3)Gal(b1-4)GlcNAc(b1-3)Gal(b1-4)GlcNAc(b1-2)Man(a1-6)]Man(b1-4)GlcNAc(b1-4)[Fuc(a1-6)]GlcNAc
In short: as §1

[16] = target: Gal(b1-4)GlcNAc(b1-3)Gal(b1-4)GlcNAc(b1-3)Gal(b1-4)GlcNAc(b1-3)Gal(b1-4)GlcNAc(b1-2)[Gal(b1-4)GlcNAc(b1-3)Gal(b1-4)GlcNAc(b1-3)Gal(b1-4)GlcNAc(b1-3)Gal(b1-4)GlcNAc(b1-6)]Man(a1-6)[Gal(b1-4)GlcNAc(b1-3)Gal(b1-4)GlcNAc(b1-3)Gal(b1-4)GlcNAc(b1-3)Gal(b1-4)GlcNAc(b1-2)Man(a1-3)]Man(b1-4)GlcNAc(b1-4)[Fuc(a1-6)]GlcNAc
In short: as §1

[17] = target: Gal(b1-4)GlcNAc(b1-3)Gal(b1-4)GlcNAc(b1-3)Gal(b1-4)GlcNAc(b1-3)Gal(b1-4)GlcNAc(b1-3)Gal(b1-4)GlcNAc(b1-2)Man(a1-3)[Gal(b1-4)GlcNAc(b1-3)Gal(b1-4)GlcNAc(b1-3)Gal(b1-4)GlcNAc(b1-3)Gal(b1-4)GlcNAc(b1-3)Gal(b1-4)GlcNAc(b1-2)Man(a1-6)]Man(b1-4)GlcNAc(b1-4)GlcNAc
In short: as §1

[18] = target: Gal(b1-4)GlcNAc(b1-3)Gal(b1-4)GlcNAc(b1-3)Gal(b1-4)GlcNAc(b1-3)Gal(b1-4)GlcNAc(b1-3)Gal(b1-4)GlcNAc(b1-2)Man(a1-3)[Gal(b1-4)GlcNAc(b1-3)Gal(b1-4)GlcNAc(b1-3)Gal(b1-4)GlcNAc(b1-3)Gal(b1-4)GlcNAc(b1-3)Gal(b1-4)GlcNAc(b1-2)Man(a1-6)]Man(b1-4)GlcNAc(b1-4)[Fuc(a1-6)]GlcNAc
In short: as §1

[19] = target: Gal(b1-4)GlcNAc(b1-3)Gal(b1-4)GlcNAc(b1-3)Gal(b1-4)GlcNAc(b1-3)Gal(b1-4)GlcNAc(b1-3)Gal(b1-4)GlcNAc(b1-2)[Gal(b1-4)GlcNAc(b1-3)Gal(b1-4)GlcNAc(b1-3)Gal(b1-4)GlcNAc(b1-3)Gal(b1-4)GlcNAc(b1-3)Gal(b1-4)GlcNAc(b1-6)]Man(a1-6)[Gal(b1-4)GlcNAc(b1-3)Gal(b1-4)GlcNAc(b1-3)Gal(b1-4)GlcNAc(b1-3)Gal(b1-4)GlcNAc(b1-3)Gal(b1-4)GlcNAc(b1-2)Man(a1-3)]Man(b1-4)GlcNAc(b1-4)[Fuc(a1-6)]GlcNAc
In short: as §1

[20] = target: Gal(b1-4)GlcNAc(b1-3)Gal(b1-4)GlcNAc(b1-3)Gal(b1-4)GlcNAc(b1-3)Gal(b1-4)GlcNAc(b1-3)Gal(b1-4)GlcNAc(b1-3)Gal(b1-4)GlcNAc(b1-2)Man(a1-3)[Gal(b1-4)GlcNAc(b1-3)Gal(b1-4)GlcNAc(b1-3)Gal(b1-4)GlcNAc(b1-3)Gal(b1-4)GlcNAc(b1-3)Gal(b1-4)GlcNAc(b1-3)Gal(b1-4)GlcNAc(b1-2)Man(a1-6)]Man(b1-4)GlcNAc(b1-4)GlcNAc
In short: as §1

[21] = target: Gal(b1-4)GlcNAc(b1-3)Gal(b1-4)GlcNAc(b1-3)GalNAc
In short: as §1

[22] = target: Gal(b1-4)GlcNAc(b1-3)Gal(b1-4)GlcNAc(b1-3)[Gal(b1-4)GlcNAc(b1-3)Gal(b1-4)GlcNAc(b1-6)]GalNAc
In short: as §1

[23] = target: Gal(b1-4)GlcNAc(b1-3)Gal(b1-4)GlcNAc(b1-6)[Gal(b1-3)]GalNAc
In short: as §1

B1: Pbx1CASH domain (Cryptococcus neoformans) (protein)
chain: MDETKPLWGNPRADGISLACKDSIVERNVVYDATDGAIVLFGSAGSTVKNNHVYARTRVILGGINLVDYEPWDGDYTNVKVHHNHLYALGRYFKVGIVIGPASWSDDTESVVHSASVTDNEFSGGYWGYGIVVASAKNFEVLRNKVIWDGEQGVARFSGVPGS
Question: Which results are given for B1?
Answer: glycan array binding signal (z-score) [1]: 0.375; glycan array binding signal (z-score) [2]: 0.935; glycan array binding signal (z-score) [3]: -0.387; glycan array binding signal (z-score) [4]: 0.559; glycan array binding signal (z-score) [5]: -0.081; glycan array binding signal (z-score) [6]: 5.46; glycan array binding signal (z-score) [7]: 1.12; glycan array binding signal (z-score) [8]: 2.22; glycan array binding signal (z-score) [9]: 1.57; glycan array binding signal (z-score) [10]: 0.478; glycan array binding signal (z-score) [11]: 3.17; glycan array binding signal (z-score) [12]: 1; glycan array binding signal (z-score) [13]: 1.03; glycan array binding signal (z-score) [14]: -0.377; glycan array binding signal (z-score) [15]: 0.544; glycan array binding signal (z-score) [16]: -0.458; glycan array binding signal (z-score) [17]: -0.019; glycan array binding signal (z-score) [18]: -0.419; glycan array binding signal (z-score) [19]: -0.397; glycan array binding signal (z-score) [20]: 0.91; glycan array binding signal (z-score) [21]: 2.28; glycan array binding signal (z-score) [22]: 4.67; glycan array binding signal (z-score) [23]: 2.73
